Laboratory results: PubChem BioAssay AID652243 (Drosophila RNAi Screening Center, 2013)

- Purpose: 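Knock-downs that decrease or increase androgen receptor reporter signal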 (primary screen)
- Cells: Drosophila S2R+ cells
- Reagent: long dsRNA against Drosophila genes
- Duration: 72 h (48 h, then 24 h hormone)
- Treatment: synthetic androgen R1881 at 10 nM for 24 h
- Measurement: 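Firefly light from an androgen-responsive reporter and Renilla control light per well, raw and unnormalised, for each of two replicates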
- Direction: firefly reporter light: higher = more light from androgen-responsive reporter; Renilla control light: higher = more constitutive control signal (cell number, transfection)
- Hit rule: 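Across duplicate plates, a knock-down whose log firefly/Renilla ratio shifted a set fold down or up from the GFP/LacZ control mean was a hit; the downward cut appears as both 1.5 and 3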
- Meaning of the calls: active = hit: reporter lowered or raised; inactive = no hit
The screen tested about 24,000 reagents; shown is an unselected part of those that have a named target and a result. Of all reagents, 246 (1%) are marked active. 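Plates not normalised; calls are printed but the firefly/Renilla ratio behind them is not deposited; fold cut for lowering reported inconsistently.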 Raw values are not corrected between plates. Reagent sequences are not shown. Not stated in the record: the amount of reagent.

The first 3 entries, to show the layout:
gene	dsRNA	firefly reporter light, replicate 1	firefly reporter light, replicate 2	Renilla control light, replicate 1	Renilla control light, replicate 2	outcome
CG8492	DRSC10984	6.47e5	6.72e5	2.42e6	3.73e6	inactive
CG8492	DRSC21804	5.11e5	7.35e5	2.84e6	4.79e6	inactive
CG12540	DRSC19471	5.68e5	5.54e5	3.91e6	4.21e6	inactive

Results, from the start:
gene	dsRNA	firefly reporter light, replicate 1	firefly reporter light, replicate 2	Renilla control light, replicate 1	Renilla control light, replicate 2	outcome
CG8492	DRSC10984	6.47e5	6.72e5	2.42e6	3.73e6	inactive
CG8492	DRSC21804	5.11e5	7.35e5	2.84e6	4.79e6	inactive
CG12540	DRSC19471	5.68e5	5.54e5	3.91e6	4.21e6	inactive
Cec-Psi1	DRSC21956	4.51e5	4.68e5	1.24e6	1.05e6	inactive
snoRNA:U3:9B	DRSC37902	8.21e5	8.56e5	1.52e6	1.86e6	inactive
CG13423	DRSC06386	77263	1.28e5	1.24e6	1.30e6	inactive
CG13377	DRSC18622	3.34e5	2.89e5	3.60e6	3.16e6	inactive
bsh	DRSC03498	4.86e5	4.70e5	2.61e6	3.67e6	inactive
bsh	DRSC25413	9.67e5	7.98e5	8.55e5	7.63e5	inactive
CG14182	DRSC10181	1.72e5	1.52e5	1.65e6	1.68e6	inactive
RYBP	DRSC04117	1.35e6	7.82e5	2.08e6	1.50e6	inactive
RYBP	DRSC27464	2.84e5	2.84e5	8.37e5	8.80e5	inactive
Tsf2	DRSC09751	1.06e6	7.58e5	1.11e6	1.13e6	inactive
CG9154	DRSC03150	1.49e6	1.32e6	2.87e6	3.10e6	inactive
PIG-S	DRSC14643	1.30e5	1.20e5	4.94e5	4.55e5	inactive
PIG-S	DRSC15388	1.90e5	2.73e5	2.14e6	2.14e6	inactive
PIG-S	DRSC15952	1.75e5	1.57e5	1.14e6	1.18e6	inactive
l(1)G0320	DRSC18255	85353	61673	6.22e5	5.62e5	inactive
CG34454	DRSC37913	6.06e5	5.78e5	1.33e6	1.39e6	inactive
asRNA:CR17025	DRSC28651	4.51e5	4.47e5	1.41e6	1.25e6	inactive
ND-13A	DRSC03110	2.52e5	1.99e5	1.45e6	1.14e6	inactive
ND-13A	DRSC29397	4.26e5	3.66e5	9.29e5	9.29e5	inactive
gem	DRSC06093	6.29e5	5.29e5	1.05e6	7.88e5	inactive
gem	DRSC06847	2.28e5	1.77e5	1.24e6	1.11e6	inactive
Dbp80	DRSC22034	6.51e5	5.80e5	2.24e6	2.11e6	inactive
sick	DRSC02090	67291	68200	9.41e5	8.69e5	inactive
sick	DRSC02300	72574	90656	8.65e5	1.10e6	inactive
sick	DRSC02301	1.57e5	1.75e5	1.54e6	1.54e6	inactive
sick	DRSC02302	99348	1.23e5	8.05e5	1.21e6	inactive
sick	DRSC02306	1.22e5	1.15e5	1.01e6	1.31e6	inactive
sick	DRSC28668	5.13e5	5.42e5	1.51e6	1.70e6	inactive
CG14414	DRSC19599	3.50e5	3.64e5	3.79e6	4.05e6	inactive
CG12170	DRSC12199	4.19e5	3.32e5	3.70e6	3.03e6	inactive
CG10904	DRSC04084	2.40e5	2.69e5	1.81e6	2.01e6	inactive
CG7715	DRSC16301	2.83e5	2.18e5	2.88e6	3.31e6	inactive
Pp1-Y1	DRSC38778	7.97e5	7.82e5	1.72e6	1.61e6	inactive
sei	DRSC04713	5.55e5	8.05e5	8.27e5	1.06e6	inactive
sei	DRSC29359	4.56e5	4.86e5	1.29e6	1.29e6	inactive
CG11168	DRSC14292	55830	1.16e5	4.89e5	5.44e5	inactive
Ggt-1	DRSC19993	1.17e5	1.45e5	9.93e5	8.95e5	inactive
Ggt-1	DRSC27144	3.15e5	3.52e5	4.83e5	5.38e5	inactive
CG31677	DRSC22023	7.61e5	7.57e5	2.08e6	2.32e6	inactive
CG12818	DRSC14556	84018	1.35e5	1.94e6	1.73e6	inactive
Tsp33B	DRSC02418	2.31e5	1.67e5	8.74e5	1.38e6	inactive
Tsp33B	DRSC28982	7.73e5	7.25e5	1.68e6	1.28e6	inactive
Cf2	DRSC23015	9.41e5	1.04e6	1.42e5	2.28e5	inactive
Cf2	DRSC28177	3.19e5	3.45e5	1.01e6	6.76e5	inactive
CG6420	DRSC16035	2.29e5	2.05e5	2.50e6	2.19e6	inactive
Mfe2	DRSC19869	93370	1.32e5	8.79e5	8.36e5	inactive
Cyp303a1	DRSC03300	1.66e5	1.19e5	2.13e6	1.20e6	inactive
St2	DRSC15142	1.02e5	1.37e5	2.13e6	2.12e6	inactive
St2	DRSC22624	6.35e5	6.00e5	1.86e6	1.26e6	inactive
srl	DRSC12340	79594	1.34e5	2.62e6	2.41e6	inactive
srl	DRSC29561	2.40e5	3.55e5	6.67e5	6.67e5	inactive
Trf4-1	DRSC17775	3.47e5	3.53e5	3.36e6	4.41e6	inactive
CG11474	DRSC04112	1.24e6	9.36e5	1.69e6	1.20e6	inactive
zda	DRSC06936	7.61e5	6.11e5	6.44e5	5.61e5	inactive
zda	DRSC25289	6.63e5	9.70e5	7.79e5	8.17e5	inactive
CG9782	DRSC19145	5.77e5	4.25e5	3.86e5	2.85e5	inactive
CG9782	DRSC20209	3.91e5	3.79e5	2.88e6	3.11e6	inactive
CG9782	DRSC25115	6.33e5	6.59e5	8.75e5	8.19e5	inactive
CtsB	DRSC19361	74773	83889	5.16e5	5.22e5	inactive
Cyp304a1	DRSC16623	44498	51815	8.99e5	1.11e6	inactive
Sid	DRSC16588	2.07e5	2.17e5	2.49e6	3.11e6	inactive
Sid	DRSC26318	3.87e5	4.97e5	5.04e5	7.58e5	inactive
CG40155 (retired record)	DRSC37811	8.58e5	8.19e5	2.06e6	2.07e6	inactive
raw	DRSC03599	41716	52149	8.36e5	8.50e5	inactive
raw	DRSC03600	1.27e5	41523	6.48e5	5.47e5	inactive
CG33169	DRSC11853	1.62e5	1.52e5	1.05e6	1.06e6	inactive
CG33169	DRSC27830	3.00e5	2.85e5	5.47e5	8.19e5	inactive
Acox3	DRSC03251	1.17e5	87117	8.20e5	6.26e5	inactive
Acox3	DRSC23799	1.30e6	1.43e6	1.29e6	1.19e6	inactive
hpRNA:CR33940	DRSC39118	4.95e5	4.73e5	1.84e6	1.78e6	inactive
CG3927	DRSC04433	3.13e5	2.40e5	2.83e6	2.87e6	inactive
CG3927	DRSC22813	5.55e5	9.49e5	8.43e5	1.11e6	inactive
